The target in experiment [1] is T1, Sorcin (soluble resistance-related calcium-binding protein) (human (endogenous in OV3R-PTX and SK3R-PTX)) (UniProt P30626).
T1 sequence: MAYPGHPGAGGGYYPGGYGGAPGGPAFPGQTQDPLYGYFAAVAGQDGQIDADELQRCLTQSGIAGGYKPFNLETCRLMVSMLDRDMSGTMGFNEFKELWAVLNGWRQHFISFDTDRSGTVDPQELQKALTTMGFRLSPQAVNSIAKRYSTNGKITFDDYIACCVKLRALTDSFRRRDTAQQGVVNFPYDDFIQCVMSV
The experiment can be described thus: co-IP; endogenous proteins extracted from OV3R-PTX and SK3R-PTX cells; anti-Smad4 monoclonal antibody, anti-SRI monoclonal antibody or normal IgG control (2 ug each) overnight at 4 °C, then protein A + G agarose for 6 h; Western blot. (Immunoblotting shows a protein as a band on a membrane.)

Chains of the proteins cited; added tags and fusions are not shown.
UniProt Q13485: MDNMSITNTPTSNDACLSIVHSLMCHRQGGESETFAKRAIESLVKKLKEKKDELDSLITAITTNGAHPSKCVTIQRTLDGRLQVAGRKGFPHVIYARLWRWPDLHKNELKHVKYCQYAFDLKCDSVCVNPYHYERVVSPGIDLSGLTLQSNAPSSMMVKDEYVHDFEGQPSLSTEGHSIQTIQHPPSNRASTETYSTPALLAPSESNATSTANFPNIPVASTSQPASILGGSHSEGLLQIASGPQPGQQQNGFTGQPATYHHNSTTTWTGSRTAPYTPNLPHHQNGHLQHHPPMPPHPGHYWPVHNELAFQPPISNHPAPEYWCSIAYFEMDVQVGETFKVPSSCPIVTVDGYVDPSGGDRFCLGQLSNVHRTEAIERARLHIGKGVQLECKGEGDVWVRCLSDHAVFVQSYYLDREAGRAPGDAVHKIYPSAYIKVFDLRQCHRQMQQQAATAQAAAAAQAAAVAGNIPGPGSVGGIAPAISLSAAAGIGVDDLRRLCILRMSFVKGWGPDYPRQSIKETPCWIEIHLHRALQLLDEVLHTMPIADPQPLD
UniProt Q15796: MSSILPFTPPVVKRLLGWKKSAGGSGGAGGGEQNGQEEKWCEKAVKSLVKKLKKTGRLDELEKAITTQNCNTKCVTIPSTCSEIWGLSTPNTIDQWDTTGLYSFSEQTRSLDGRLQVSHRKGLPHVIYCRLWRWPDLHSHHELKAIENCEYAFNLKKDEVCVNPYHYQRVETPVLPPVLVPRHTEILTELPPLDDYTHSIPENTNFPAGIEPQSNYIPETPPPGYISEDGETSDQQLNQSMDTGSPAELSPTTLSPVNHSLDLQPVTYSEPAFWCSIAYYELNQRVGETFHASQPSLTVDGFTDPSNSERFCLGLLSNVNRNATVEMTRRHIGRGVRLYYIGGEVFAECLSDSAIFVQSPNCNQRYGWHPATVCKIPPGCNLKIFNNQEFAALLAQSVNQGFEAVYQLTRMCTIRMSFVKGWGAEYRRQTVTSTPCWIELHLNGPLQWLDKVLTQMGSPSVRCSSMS

Experiment [2] deals with Smad4 (human (endogenous in OV3R-PTX and SK3R-PTX)) (UniProt Q13485). Described as above.

No constants are given. Whether binding was seen depends on the method and setting. In cells and extracts the contact can be indirect. Some binding calls cover weakened binding; strength is not graded here.

With Smad2 (from UniProt Q15796 1-467), the binding entry in experiment [1] is given as “binds weakly”.

Consider Smad4 (from UniProt Q13485 1-552), for which the binding result in experiment [1] was “binds weakly”.

B1: Sorcin (soluble resistance-related calcium-binding protein) (protein, UniProt P30626 1-198)
chain: MAYPGHPGAGGGYYPGGYGGAPGGPAFPGQTQDPLYGYFAAVAGQDGQIDADELQRCLTQSGIAGGYKPFNLETCRLMVSMLDRDMSGTMGFNEFKELWAVLNGWRQHFISFDTDRSGTVDPQELQKALTTMGFRLSPQAVNSIAKRYSTNGKITFDDYIACCVKLRALTDSFRRRDTAQQGVVNFPYDDFIQCVMSV
As to B1, the binding entry in experiment [2] is given as “binds weakly”.

(Values after PMC8321900.)
